Laboratory results published in US20110243845A1.
These are yes or no findings as the source states them, for the method shown. Some results given as binding are weak or reduced against the parent protein; the word gives no strength.

Protein sequences, listed by entry. Tags and fused reporters are not part of them.
UniProt P30874: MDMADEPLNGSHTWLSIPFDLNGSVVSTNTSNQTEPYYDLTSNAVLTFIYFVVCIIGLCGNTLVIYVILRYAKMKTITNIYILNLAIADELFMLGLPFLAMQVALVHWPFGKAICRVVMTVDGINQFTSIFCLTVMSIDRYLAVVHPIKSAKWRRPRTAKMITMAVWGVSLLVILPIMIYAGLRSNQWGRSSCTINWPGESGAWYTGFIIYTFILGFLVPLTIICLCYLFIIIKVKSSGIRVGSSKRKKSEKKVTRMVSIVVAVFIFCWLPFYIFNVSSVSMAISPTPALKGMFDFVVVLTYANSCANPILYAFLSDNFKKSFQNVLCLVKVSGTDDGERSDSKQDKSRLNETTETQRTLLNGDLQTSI

How the values were obtained:
hsst2 (human) [1] = biological target: hsst2 (human) (UniProt P30874); test: binding potencies at somatostatin receptors; method not described
hsst2 (human) [2] = biological target: hsst2 (human) (UniProt P30874); test: binding potencies at somatostatin receptors hsst1-5; method not described

Row | binding (hsst2 (human) [1]) | binding (hsst2 (human) [2]) | Binder
1 | binds | binds | PFWKTF (head-to-tail cyclic hexapeptide; residue 3 is (2R,3S)-β-methyl-Trp) [c[Pro-Phe-(2R,3S)-β-MeTrp-Lys-Thr-Phe]]
2 | – | binds | PFWKTF (head-to-tail cyclic hexapeptide; residue 3 is (2R,3R)-β-methyl-Trp) [c[Pro-Phe-(2R,3R)-β-MeTrp-Lys-Thr-Phe]]
